Data as given in PubChem BioAssay AID504467 (National Center for Advancing Translational Sciences (NCATS), 2011).
In all, about 330,000 compounds went through this assay and about 7,700 (2.3%) were called active. The inconclusive results got no clear call from the source; some entries with a clear call stand among them for comparison. Calls follow the shape of the dose curve; as a rule, active = well fitted inhibition curve with a large enough effect; inconclusive = small, poorly fitted or top-dose-only effect, or effect the other way; inactive = flat fitted curve, though single readings scatter. A potency beside an inconclusive call is a rough fit, not a confirmed value.

assay: qHTS screen for small molecules that inhibit ELG1-dependent DNA repair in human embryonic kidney (HEK293T) cells expressing luciferase-tagged ELG1; conditions: HEK293T ELG1-luciferase reporter, luminescence, 16 h, DNA damage induced by 5-fluorouridine; activity change, negative = inhibition: at 46.1 µM (top of the series); also: nearly all actives have a fitted effect of over 55% in size
In short: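 Luminescence from the luciferase reporter, measured 30 min after ONE-Glo reagent at room temperature, was the read-out. Beforehand, 2,000 cells per well were exposed for 16 hr at 37 °C to 5-fluorouridine together with compound or vehicle.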
% is scaled to controls: 0 for no effect and ±100 for the full control effect; potency is read from the fitted curve at half-maximal effect.

Compound | Potency | activity change, negative = inhibition
CCCN1C(=O)C(Cc2nc3ccccc3c(=O)n2C)c2ccccc21 (centres undefined) | inconclusive: 15.8 µM [activator, single point] | –
O=C(NNC(=O)c1cccc2ccccc12)c1ccccc1O | – | inactive: -3.49%
CCN1C=C(Cc2ccc(F)cc2)C2=C(C1)C(c1ccc(F)cc1)C(C#N)=C(N)O2 (centres undefined) | – | inactive: -10.3%
CC(=O)c1c(C)[nH]c(C(=O)N2CCN(S(=O)(=O)c3ccc(C)cc3C)CC2)c1C | inconclusive: 18.3 µM [inhibitor, single point] | –
CNC(=S)N1N=C(c2ccccc2)CC1c1ccc(OC)c(OC)c1 (centres undefined) | inconclusive: 9.2 µM [activator, partial curve, poor fit] | –
O=S(=O)(Cc1ccccc1)Oc1ccccc1 | – | inactive: 24.8%
COc1cccc(C(=O)N2CCN(C(=O)c3ccc(-c4ccccc4)cc3)CC2)c1OC | inconclusive: 29.1 µM [inhibitor, single point] | –
CCCCC1CCC(c2ccc(C(N)=O)cc2)CC1 (centres undefined) | – | inactive: 13%
Cc1ccc(NC(=O)CN(C)C(=O)CSc2nnc(C)s2)cc1 | inconclusive: 16.4 µM [activator, partial curve, poor fit] | –
CCCN1C(=O)c2ccc(C(=O)Nc3ccc4c(c3)OCO4)cc2C1=O | inconclusive: 25.9 µM [activator, single point] | –
COc1cccc(CN2CCN(C(=O)c3oc4c(F)cccc4c3C)CC2=O)c1 | – | inactive: -2.43%
N#Cc1cc2c([nH]c1=S)CCCCCC2 | – | inactive: 12%
Cc1c(/C=N/NC(=O)c2ccc(O)cc2)c2ccccn2c1C(=O)c1ccc(F)cc1 | inconclusive: 29.1 µM [inhibitor, single point] | –
O=C(CCS(=O)(=O)c1ccc(Cl)cc1)N1CCN(S(=O)(=O)c2cccs2)CC1 | inconclusive: 18.4 µM [inhibitor, single point] | –
COCCSc1ncnc2c1oc1nc3c(cc12)COC(C)(C)C3 | inconclusive: 20.6 µM [inhibitor, single point] | –
CCCc1cc(C(=O)OCC(=O)N2CCN(c3ccc(OC)cc3)CC2)sc1C | inconclusive: 20.6 µM [inhibitor, single point] | –
COc1cccc(Oc2nnnn2-c2ccccc2)c1 | inconclusive: 20.6 µM [activator, partial curve] | –
Cn1nc(C(F)(F)F)c(C#N)c1N1CCN(c2ccccc2)CC1 | active: 9.2 µM | –
O=C(COC(=O)CC1CC2CCC1C2)Nc1cc([N+](=O)[O-])ccc1F (centres undefined) | – | inactive: 0.467%
CN(CC(=O)NCCN1CCN(c2ccccc2)CC1)S(=O)(=O)c1ccc2c(c1)CCC(=O)N2 | – | inactive: 0.348%
O=C(N/N=C/c1ccc[nH]1)c1ccc2c(c1)OCO2 | inconclusive: 18.3 µM [activator, partial curve] | –
N#CC1=C(N)Oc2ccc3ccccc3c2C1c1cccnc1 (centres undefined) | inconclusive: 4.61 µM [inhibitor, partial curve, poor fit] | –
COc1ccc(-c2nnc(SC)o2)c(OC)c1 | inconclusive: 23.1 µM [activator, partial curve] | –
Cc1cc(C)c(S(=O)(=O)N2CCOC2CNC(=O)C(=O)NCCCN2CCOCC2)c(C)c1 (centres undefined) | inconclusive: 5.8 µM [activator, partial curve] | –
CC(C)(C)C(=O)N1CCC[C@H]1C(O)(c1ccccc1)c1ccccc1 | – | inactive: -14.1%

Compound | Potency | activity change, negative = inhibition
COc1cc(CC(CC(=O)O)CC(C)OCc2ccccc2)cc(OC)c1 (centres undefined) | – | inactive: 5.9%
O=C(CSCc1ccccc1)Nc1ccccc1C(=O)Nc1ccc(C(=O)O)cc1 | – | inactive: 0%
C/C(CC(=O)NC(C)(C)C)=N\NC(=O)c1ccccc1N | inconclusive: 25.9 µM [activator, single point] | –
COc1cc(C(=O)NCC(=O)N2CCN(S(=O)(=O)c3ccccc3)CC2)cc(OC)c1OC | – | inactive: -2.1%
O=C(c1ccc(Cl)cc1)C1CCCN(C(=O)/C=C/c2ccccn2)C1 (centres undefined) | inconclusive: 18.3 µM [activator, partial curve, poor fit] | –
O=C(Cn1c2[n+](c3ccc(C(F)(F)F)cc31)CCCCC2)c1ccc2c(c1)OCCO2 | – | inactive: 10.4%
CCOC(=O)c1cc(-c2ccccc2)nn1Cc1cc(CC)no1 | inconclusive: 20 µM [activator, single point] | –
CC1Cc2ccccc2N1C(=O)CSc1nnc(-c2ccc(S(=O)(=O)N3CCCC3)cc2)n1C (centres undefined) | inconclusive: 29.1 µM [inhibitor, single point] | –
COc1ccc(OCc2cc(C(=O)NCc3nc(C)cs3)no2)c(Cl)c1 | inconclusive: 18.3 µM [activator, partial curve] | –
O=C(C1CCCCN1S(=O)(=O)c1ccccc1[N+](=O)[O-])N1CCCCC1 (centres undefined) | – | inactive: -11.8%
CCOc1ccc(CC(=O)NC2CCN(Cc3ccccc3)CC2)cc1 | – | inactive: -9.53%
O=C(CSc1nnc(-c2ccco2)c(-c2ccco2)n1)Nc1ccccc1 | – | inactive: -1.64%
O=c1[nH]c(=O)n(Cc2ccccc2)c2nc(-c3ccco3)cc(C(F)(F)F)c12 | – | inactive: 14%
CC(C)c1ccccc1OCC(O)CN(CC(O)COc1cccc2ccccc12)C(C)C (centres undefined) | inconclusive: 25.9 µM [inhibitor, single point] | –
COc1ccccc1C(=O)Nc1ccc(S(=O)(=O)N2CCCCC2c2cccnc2)cc1 (centres undefined) | active: 23.1 µM | –
COC(=O)c1[nH]c(C)c(/C(O)=C2\C(=O)C(=O)N(CCCN3CCOCC3)C2c2ccccn2)c1C (centres undefined) | inconclusive: 1.16 µM [activator, full curve, poor fit] | –
CCCCc1ccc(CC(=O)Nc2cc(S(=O)(=O)N3CCOCC3)ccc2O)cc1 | – | inactive: 2.69%
O=C(N[C@@H](Cc1ccccc1)C(=O)NC1CCCCCC1)c1ccco1 | inconclusive: 23.1 µM [activator, single point] | –
Cc1ccc(C2(CC(=O)Nc3nccs3)CCOC(C(C)C)C2)cc1 (centres undefined) | – | inactive: -16.2%
COc1ccc(C(=O)/C=C/Nc2ccc(C)cn2)cc1OC | inconclusive: 2.31 µM [activator, full curve] | –
COc1ccccc1C1CCN(C(=O)c2ccco2)CC1 | – | inactive: -2.69%
CCN(CC)c1ccc(S(=O)(=O)N2CCOCC2)cc1NC(=O)CN1CCc2ccccc2C1 | inconclusive: 10.3 µM [inhibitor, partial curve, poor fit] | –
COCCn1c(SCC(=O)Nc2ccc(S(=O)(=O)N(C)C)cc2)nc2ccccc21 | active: 14.6 µM | –
Cc1ccccc1OCC(=O)N(CC(C)C)c1c(N)n(CC(C)C)c(=O)[nH]c1=O | – | inactive: 6.77%
O=C(COC(=O)c1cc(S(=O)(=O)N2CCOCC2)ccc1Cl)Nc1ccccc1Cl | – | inactive: -7.2%

Two entries drawn at random from the list so far:
Compound | Potency | activity change, negative = inhibition
Cn1nc(C(F)(F)F)c(C#N)c1N1CCN(c2ccccc2)CC1 | active: 9.2 µM | –
CC(=O)c1c(C)[nH]c(C(=O)N2CCN(S(=O)(=O)c3ccc(C)cc3C)CC2)c1C | inconclusive: 18.3 µM [inhibitor, single point] | –

(listing goes on)

Compound | Potency | activity change, negative = inhibition
CCC(=O)N1CCN(c2ccc(NC(=S)NC(=O)c3cc4ccccc4o3)cc2)CC1 | inconclusive: 4.11 µM [inhibitor, single point] | –
COc1cccc(N/C(SCc2cccc([N+](=O)[O-])c2)=C(/C#N)C(=O)NCc2cccs2)c1 | – | inactive: -5.67%
O=C(O)CNC(=S)N(Cc1cccs1)C1CCCCC1 | – | inactive: 16%
CNCCCOc1ccc2c(c1)CCC2 | inconclusive: 25.9 µM [activator, single point] | –
Cc1cc(SC(C)C(=O)NCC(=O)Nc2ccc(F)c(F)c2F)nc2ccccc12 (centres undefined) | – | inactive: 15.3%
COc1ccc(CCNC(=O)C2CCN(C(=O)c3ccc(Br)cc3)CC2)cc1OC | – | inactive: 8.12%
O=C(NCc1ccccc1)C(c1cccs1)N(Cc1cccs1)C(=O)c1cnccn1 (centres undefined) | inconclusive: 12.6 µM [inhibitor, single point] | –
O=C(Nc1cccnc1)c1cc(-c2cccc(Br)c2)nc2ccccc12 | inconclusive: 29.1 µM [inhibitor, single point] | –
O=C(/C=C\c1cn(-c2ccccc2)nc1-c1ccccc1)Nc1nccs1 | – | inactive: -5.36%
O=C(Nc1ccc2c(c1)ncn2C1CCCCC1)c1ccco1 | inconclusive: 11.6 µM [activator, partial curve] | –
CCOC(=O)CNC(=O)CNC(=O)c1ccc(OC)cc1 | – | inactive: 1.68%
Cc1cccnc1NC(=S)NC(=O)c1oc2ccccc2c1C | inconclusive: 9.2 µM [activator, partial curve] | –
CC(C)(C)c1nnc2sc(SCC(=O)NCc3ccco3)nn2c1=O | inconclusive: 6.51 µM [activator, full curve, poor fit] | –
c1cnn(-c2nc(N3CCOCC3)nc(N3CCOCC3)n2)c1 | inconclusive: 18.4 µM [inhibitor, partial curve] | –
O=C(Nc1ccccc1C(=O)O)c1cc(S(=O)(=O)N2CCCCC2)cs1 | inconclusive: 29.1 µM [activator, single point] | –
CCOc1ccc(CNC(=O)C2CCN(c3nn4c(=O)cc(C)nc4s3)CC2)cc1 | – | inactive: -6.28%
Cc1ccc(N=Cc2nc(-c3ccc(C)cc3)oc2O)cc1 | – | inactive: 8.98%
COc1ccc(Cl)cc1NC(=O)CSc1nc2ccsc2c(=O)n1CC1CCC(C(=O)O)CC1 (centres undefined) | inconclusive: 18.3 µM [activator, partial curve, poor fit] | –
CC1=CC(C)(C)N2C(=O)C3(N=C(N)NC(Nc4ccccc4)=N3)c3cc(C)cc1c32 (centres undefined) | inconclusive: 20.6 µM [inhibitor, single point] | –
c1c2c(cc3sc(N4CCCCC4)nc13)OCO2 | inconclusive: 2.59 µM [activator, partial curve] | –
Cc1ccc2nc(NC(=O)CN3C(=O)NC4(CCCC4)C3=O)sc2c1 | inconclusive: 13 µM [activator, partial curve, poor fit] | –
O=C1CC(NN2CCCCC2)C(=O)N1c1ccccc1 (centres undefined) | – | inactive: 16.1%
Cc1nn(C)cc1CNC(=O)Nc1ccc(Cl)cc1 | inconclusive: 20.6 µM [activator, partial curve] | –
CC(C)OCCCNc1nc2c([nH]1)c(=O)n(C)c(=O)n2C | inconclusive: 23.1 µM [inhibitor, partial curve, poor fit] | –

Copied from the list:
Under Potency, c1cnn(-c2nc(N3CCOCC3)nc(N3CCOCC3)n2)c1 is listed with inconclusive: 18.4 µM [inhibitor, partial curve]
Under Potency, COCCn1c(SCC(=O)Nc2ccc(S(=O)(=O)N(C)C)cc2)nc2ccccc21 is listed with active: 14.6 µM
Under activity change, negative = inhibition, Cc1ccc(N=Cc2nc(-c3ccc(C)cc3)oc2O)cc1 is listed with inactive: 8.98%
Under activity change, negative = inhibition, O=C(CSCc1ccccc1)Nc1ccccc1C(=O)Nc1ccc(C(=O)O)cc1 is listed with inactive: 0%
